Reference: PubChem BioAssay AID686937 (Drosophila RNAi Screening Center, 2013)

Purpose: 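Genes in the fly needed for secretion of protein constitutively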 (primary screen)
System: Drosophila S2 cells expressing secreted horseradish peroxidase
Knock-down reagent: long dsRNA against Drosophila genes
Timing: about 5.5 days (5 days dsRNA, then 12 h reporter induction)
Treatment: reporter expression induced after 5 days of dsRNA, read 12 h later; inducer not stated
Detection: 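Chemiluminescent measurement of peroxidase in the medium 12 h after reporter induction, following 5 days of dsRNA, given as a z-score per plate; higher means more secretion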
Reading the numbers: z-score: higher = more reporter secreted into medium
The deposit covers about 23,000 reagents; this is a random part of those that have a named target and a result. 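Reduced-secretion tags in replicate 1 do not always agree with the z-scores; no criterion for assigning the tags was given.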 Not all columns of the deposit are shown. The record does not give: the amount of reagent.

gene knocked down,amplicon,"z-score, replicate 1"
Traf6 (TNF-receptor-associated factor 6),DRSC18725,0.34
spen (split ends),DRSC00839,0.17
CG3330,DRSC15477,0.41
Kr-h2 (Kruppel homolog 2),DRSC03356,0.11
CG7985,DRSC14128,0.3
CG34386,DRSC06467,-1.54
CG34386,DRSC06468,0.23
Or74a (Odorant receptor 74a),DRSC11245,0.06
CG10588,DRSC11628,0.19
Act42A (Actin 42A),DRSC04835,0.04
ImpL1 (Ecdysone-inducible gene L1),DRSC11197,0.16
cocoon,DRSC10916,0.46
CG9555,DRSC03264,0.32
CG7992,DRSC20070,0.13
HisT (Histamine transporter),DRSC05051,0.17
HisT (Histamine transporter),DRSC05052,0.13
HisT (Histamine transporter),DRSC06405,-0.77
Cyp6a17 (Cytochrome P450 6a17),DRSC07378,0.29
Elal (Elastin-like),DRSC16662,0.33
CG15262,DRSC01975,0.35
HP5 (Heterochromatin protein 5),DRSC19773,0.4

A run of entries from the list above, for reference:
gene knocked down,amplicon,"z-score, replicate 1"
cocoon,DRSC10916,0.46
CG9555,DRSC03264,0.32
CG7992,DRSC20070,0.13

Next entries:
gene knocked down,amplicon,"z-score, replicate 1"
CG15711,DRSC06582,0.07
CG33465,DRSC05587,-0.47
CG13059,DRSC09942,0.45
ChAT (Choline acetyltransferase),DRSC13314,0.11
ChAT (Choline acetyltransferase),DRSC16609,0.19
ChAT (Choline acetyltransferase),DRSC22755,0.31
alpha-Est4aPsi (pseudo),DRSC12473,0.05
CG12885,DRSC14572,0.58
CG32808,DRSC17689,0.34
Tailor,DRSC12526,0.21
Acp76A (Accessory gland protein 76A),DRSC09665,0.39
H (Hairless),DRSC16692,0.38
